Results of single-concentration screens

By UniProt entry, the sequences of proteins in these tests, tags left out. Residues count along the entry.
UniProt P9WPC5, whole entry: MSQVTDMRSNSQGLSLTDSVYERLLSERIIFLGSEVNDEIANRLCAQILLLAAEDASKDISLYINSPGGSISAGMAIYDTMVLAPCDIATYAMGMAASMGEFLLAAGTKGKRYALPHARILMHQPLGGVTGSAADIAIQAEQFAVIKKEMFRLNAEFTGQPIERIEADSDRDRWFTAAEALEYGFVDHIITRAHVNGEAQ
UniProt P9WPC3, whole entry partner: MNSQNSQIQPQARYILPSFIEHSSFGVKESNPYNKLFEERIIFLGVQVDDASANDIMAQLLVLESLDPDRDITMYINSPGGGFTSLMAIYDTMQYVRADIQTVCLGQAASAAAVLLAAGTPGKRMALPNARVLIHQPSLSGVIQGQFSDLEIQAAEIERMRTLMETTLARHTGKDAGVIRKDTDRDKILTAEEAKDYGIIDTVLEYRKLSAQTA
UniProt P9WNZ1, whole entry: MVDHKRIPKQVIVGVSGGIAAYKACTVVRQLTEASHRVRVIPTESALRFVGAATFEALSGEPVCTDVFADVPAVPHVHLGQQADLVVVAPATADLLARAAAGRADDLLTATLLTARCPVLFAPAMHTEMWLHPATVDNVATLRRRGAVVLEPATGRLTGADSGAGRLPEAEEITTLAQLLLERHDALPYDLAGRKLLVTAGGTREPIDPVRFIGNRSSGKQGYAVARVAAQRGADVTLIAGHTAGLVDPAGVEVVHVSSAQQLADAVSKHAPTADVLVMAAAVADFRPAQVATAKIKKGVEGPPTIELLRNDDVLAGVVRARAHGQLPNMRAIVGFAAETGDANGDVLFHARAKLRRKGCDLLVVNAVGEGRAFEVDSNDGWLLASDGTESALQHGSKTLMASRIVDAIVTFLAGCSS
UniProt A4I591, 1-473: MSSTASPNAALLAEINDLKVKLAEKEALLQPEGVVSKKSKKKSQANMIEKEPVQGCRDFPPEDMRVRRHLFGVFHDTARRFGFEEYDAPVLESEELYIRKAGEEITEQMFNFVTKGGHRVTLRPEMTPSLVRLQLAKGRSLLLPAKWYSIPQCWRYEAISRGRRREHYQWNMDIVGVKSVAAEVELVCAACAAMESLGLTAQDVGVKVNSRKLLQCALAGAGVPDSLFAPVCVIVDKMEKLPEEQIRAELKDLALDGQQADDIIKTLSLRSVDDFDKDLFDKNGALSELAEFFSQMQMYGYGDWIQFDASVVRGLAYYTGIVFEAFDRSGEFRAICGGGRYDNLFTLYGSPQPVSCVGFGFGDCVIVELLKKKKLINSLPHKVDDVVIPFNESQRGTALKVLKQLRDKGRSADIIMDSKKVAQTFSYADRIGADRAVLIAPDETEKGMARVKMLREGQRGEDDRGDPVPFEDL

Each number is a percent effect as filed. The controls that fix the scale are not given in the record; negative values are as filed. Compounds were drawn at random from those tested, without regard to their results. A dash means the value is not listed here; it may have been measured.

A: 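Protease assay of ClpP1P2, read by the AMC dye that it sets free. Target: ClpP1P2, Mycobacterium tuberculosis (UniProt P9WPC5 and UniProt P9WPC3). Compounds at 50 µM. Higher reads as stronger inhibition, judged from the few compounds that gave an IC50. Most other retested compounds had strongly negative values. Size under these conditions: about 69,000 compounds, about 10 of them at 50% or above in at least one test.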
B: 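Coenzyme A biosynthesis protein CoaBC, Mycobacterium tuberculosis (UniProt P9WNZ1). Enzyme assay of CoaBC with a phosphate dye (Biomol Green) read at 650 nm. Tested at 30 µM. Higher reads as stronger inhibition, judged from the few compounds that gave an IC50. Most strong results did not repeat in a second test. About 67,000 compounds were tested under these conditions; 0.06% (about 40) showed 50% or more at least once.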
C: 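Cell assay of Leishmania donovani living inside macrophages; the read-out is not stated. Tested at 30 µM. The record gives no direction; compounds that gave an IC50 in retests scored well above the rest, so higher reads as stronger inhibition. Of about 69,000 compounds tested this way, about 1,000 (1.5%) reached 50% or more in at least one test.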
D: 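Histidine-tRNA ligase, Leishmania infantum (UniProt A4I591). Enzyme assay of histidyl-tRNA synthetase; the read-out is not stated. Concentration: 30 µM. Higher reads as stronger inhibition (inferred: compounds with an IC50 in retests scored well above the rest). The assay is labelled LdHisRS but filed under L. infantum. About 69,000 compounds were tested under these conditions; 0.6% (about 410) showed 50% or more at least once.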

| compound | A | B | C | D |
|---|---|---|---|---|
| `CC(=O)N1CCC(C(=O)NCCN2CCCCC2)CC1` | -4.687% | -8.017% | 13.42% | 22.12% |
| `O=C(C1=COCCO1)N1CC(Oc2nc3c(C(F)(F)F)cccc3s2)C1` | -0.6258% | -3.255% | 32.8% | -107.5% |
| `CCN1CCN(c2ccc(CNC(=O)c3sccc3C)cn2)CC1` | -13.44% | 1.828% | 27.1% | 15.52% |
| `CN1CCC(Cc2cc(N(C)C)ncn2)C1` (centres unmarked) | -13.25% | 4.612% | 0.0885% | 4.286% |
| `Cc1ccc(CN2CCOCS2(=O)=O)cc1F` | -1.622% | 2.046% | 14.11% | 11.24% |
| `Cc1cccc(-n2cnc(Cl)c2CO)c1` | -14.75% | -1.684% | -22.71% | 9.574% |
| `CCN1CCN(S(=O)(=O)N2CCCC2)[C@H]2CS(=O)(=O)C[C@H]21` | 9.638% | - | - | 9.167% |
| `c1ccc2c(c1)CN(c1ncnc3c1CCNC3)CCO2` | 0.6219% | -1.44% | 24.34% | 16.13% |
| `CN(Cc1ccsc1)C(=O)CN1CCc2c(ncn2C)C1` | -1.567% | -19.02% | 9.685% | 12.61% |
| `CCn1nc(C)c2ncnc(NCCCn3ccnc3)c21` | -8.749% | 0.9238% | -13.74% | 17.24% |
| `Cc1ccc(CN2CCc3onc(C(=O)NCCN(C)C)c3C2)o1.O=C(O)C(F)(F)F.O=C(O)C(F)(F)F` | - | - | 48.5% | - |
| `COCCN1CCC(NCc2ccc(F)cc2F)C1` (centres unmarked) | -20.93% | -0.2389% | 15.35% | 9.615% |
| `CCC(NC1Cc2ccccc2C1)c1ccc(S(C)(=O)=O)cc1` (centres unmarked) | 2.719% | 1.975% | 6.409% | 2.797% |
| `O=C(O)C(F)(F)F.O=C(c1cnoc1)N1CCC[C@]2(C[C@H](Oc3ncccc3F)CO2)C1` | - | - | 10.23% | - |
| `Cc1ccc(-c2nc(CC(=O)N3CCN(c4cnccn4)CC3)cs2)o1` | -8.339% | -1.908% | 23.75% | 28.7% |
| `COCC(=O)N1CCC(C(=O)N(C)C(C)c2ccon2)CC1` (centres unmarked) | -10.62% | -1.474% | 12.25% | 19.35% |
| `CNC(=O)[C@@H]1C[C@H](n2cc(-c3ccc(Cl)cc3)nn2)CN1` | 2.405% | 7.407% | 1.142% | 5.594% |
| `CC(Cn1cccn1)NC(=O)NCc1ccc(OC2CCCC2)nc1` (centres unmarked) | -24.56% | 2.089% | -7.176% | 15.52% |
| `CS(=O)(=O)c1cncnc1C1CCCN(C(=O)Cc2ccccc2F)C1` (centres unmarked) | -18.3% | 2.102% | 18.4% | 1.449% |
| `O=C(NC1CC1)[C@H]1C[C@H]2OCC[C@H]2N(Cc2cccc3ccccc23)C1` | -1.917% | 2.737% | - | 25.66% |
| `O=C(NCCc1csc(-c2ccncc2)n1)C1CC(=O)N(C2CC2)C1` (centres unmarked) | -19.14% | -0.2538% | 10.23% | 24.71% |
| `COc1ccc(C)cc1NC(=O)c1coc(C)n1` | -4.661% | 1.942% | -0.9511% | -2.41% |
| `COCCN1CCC2(C1)CN(c1ncc(F)cn1)C2.O=C(O)C(F)(F)F` | - | - | 3.485% | - |
| `CCCC(O)CN1CCC(=O)N(C)Cc2cc(F)ccc21` (centres unmarked) | 11.32% | 1.453% | -2.073% | 14.29% |
| `[H][C@@]12COC[C@]1(CNS(C)(=O)=O)CN(C(=O)CC1CCCC1)C2` | - | - | 13.96% | - |
| `Cc1nn(CC(=O)N2CCN(Cc3cccnc3)CC2)c(C)c1Cl` | -22.65% | -7.368% | 1.967% | 9.434% |
| `C[C@@H]1CN(c2ccc(Cl)cn2)CC[C@@]1(O)C1CCOCC1` | -21.23% | 3.883% | -37.36% | 17.65% |
| `Cc1cc(=O)[nH]c(-c2cccc(CN3CCCN4CCCC4C3)c2)n1` (centres unmarked) | -7.226% | 1.474% | 33.01% | 23.66% |
| `CCC(C)(CC(=O)OC)NC(=O)c1cccc(F)c1F` (centres unmarked) | 1.426% | -1.341% | 15.35% | 4.396% |
| `Cc1ccc(NC(=O)c2ccc(=O)n(CC(=O)Nc3nccs3)n2)cc1` | -12.13% | -1.186% | -12.15% | 2.74% |
| `Cc1noc([C@@H]2C[C@H]3CN(CC4CCOCC4)C[C@H]3O2)n1` | 5.077% | 0.6536% | - | 10.53% |
| `Cc1csc(CNC(=O)NCC(O)c2cccc(Cl)c2)n1` (centres unmarked) | -2.902% | -3.625% | 17.1% | 21.15% |
| `[H][C@@]12CC(=O)/C(=C(\C)NC(=O)c3cccs3)[C@]1([H])C2(C)C` | - | - | 43.94% | - |
| `CC(=O)N1CCCC1(C(=O)N1CCCC1)c1cnccn1` (centres unmarked) | -7.027% | -7.506% | -28.46% | 11.19% |
| `CN1CC2(CCCCN2C(=O)c2ccsc2)CC1=O` (centres unmarked) | 15.48% | 1.412% | 30.45% | -13.76% |
| `O=C(CC1CCCC1)NCCS(=O)(=O)N1CCN(c2ccccc2)CC1` | 10.93% | 14.12% | 20.99% | 22.67% |
| `O=C(CCCOCc1ccccc1)N1CCCC1c1ccccn1` (centres unmarked) | -6.03% | 4.884% | 18.84% | 10.11% |
| `O=C(NC1CC1)N1CC[C@H](OCC2CC2)[C@@H]1Cc1cccnc1.O=C(O)C(F)(F)F` | - | - | 3.672% | - |
| `CN(C)c1ncc2c(O)nc(C3CCNCC3)cc2n1.Cl` | - | - | 16.37% | - |
| `Cc1noc(C2CCCCN2C(=O)NCc2ccco2)n1` (centres unmarked) | 4.05% | 2.795% | -9.37% | 13.04% |
| `CCN1Cc2nccn2CC(COCc2csc(C)n2)C1` (centres unmarked) | 8.493% | 0.4878% | - | 18.87% |
| `Cc1ccsc1[C@@H]1CCN(C(=O)CCc2n[nH]c(C)c2C)C[C@H]1O` | 1.042% | 6.036% | -22.19% | 17.81% |

Some entries from above, unchanged:

compound	A	B	C	D
Cc1cc(=O)[nH]c(-c2cccc(CN3CCCN4CCCC4C3)c2)n1 (centres unmarked)	-7.226%	1.474%	33.01%	23.66%
Cc1nn(CC(=O)N2CCN(Cc3cccnc3)CC2)c(C)c1Cl	-22.65%	-7.368%	1.967%	9.434%
COCCN1CCC2(C1)CN(c1ncc(F)cn1)C2.O=C(O)C(F)(F)F	-	-	3.485%	-

From ChEMBL document CHEMBL3988442, “University of Dundee, Small-Polar-MMV Screening Library” (2021).